From publication PMC6182782
Results are given in words; binding and its absence hold for the method and conditions named. Binding seen in cells or lysates may run through a third protein. Some binding calls cover weakened binding; strength is not graded here. Values belong to the molecule of their own block, whether it stands above or below them.

By UniProt entry, the sequences of proteins in these tests, tags left out.
UniProt Q13263: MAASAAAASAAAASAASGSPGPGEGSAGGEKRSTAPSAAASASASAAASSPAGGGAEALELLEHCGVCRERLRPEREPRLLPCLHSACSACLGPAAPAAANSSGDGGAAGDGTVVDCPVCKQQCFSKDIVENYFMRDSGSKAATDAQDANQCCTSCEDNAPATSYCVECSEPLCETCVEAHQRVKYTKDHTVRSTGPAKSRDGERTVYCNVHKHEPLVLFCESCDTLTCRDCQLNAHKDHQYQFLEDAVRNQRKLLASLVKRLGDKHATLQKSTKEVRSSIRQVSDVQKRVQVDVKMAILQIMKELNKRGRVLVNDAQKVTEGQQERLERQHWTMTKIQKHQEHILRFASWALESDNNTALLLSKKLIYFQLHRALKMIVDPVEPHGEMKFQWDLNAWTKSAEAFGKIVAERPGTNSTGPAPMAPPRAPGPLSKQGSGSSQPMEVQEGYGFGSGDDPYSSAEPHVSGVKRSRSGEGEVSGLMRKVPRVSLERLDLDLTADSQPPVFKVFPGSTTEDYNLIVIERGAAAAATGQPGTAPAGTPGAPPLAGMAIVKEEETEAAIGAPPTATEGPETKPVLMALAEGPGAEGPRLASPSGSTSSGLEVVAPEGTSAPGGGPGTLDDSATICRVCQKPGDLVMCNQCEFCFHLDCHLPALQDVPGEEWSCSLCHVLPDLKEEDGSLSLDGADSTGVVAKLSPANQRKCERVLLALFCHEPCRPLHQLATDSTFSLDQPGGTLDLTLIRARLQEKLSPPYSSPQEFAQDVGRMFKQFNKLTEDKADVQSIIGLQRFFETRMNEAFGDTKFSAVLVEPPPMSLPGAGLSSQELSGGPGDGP

Assays:
[1] = molecular target: T1, MAGEC2 (human (endogenous in A375 and Hs 695 T)) (UniProt Q9UBF1); test: co-IP; endogenous proteins, A375 cells (1 x 10^8) lysed in IP buffer (50 mM Tris-HCl pH 7.5, 150 mM NaCl, 1 mM EDTA, 0.5% NP-40); IP with anti-MAGEC2 or anti-TRIM28 antibody and protein A-Sepharose, mIgG as negative control; immunoblot
T1 sequence: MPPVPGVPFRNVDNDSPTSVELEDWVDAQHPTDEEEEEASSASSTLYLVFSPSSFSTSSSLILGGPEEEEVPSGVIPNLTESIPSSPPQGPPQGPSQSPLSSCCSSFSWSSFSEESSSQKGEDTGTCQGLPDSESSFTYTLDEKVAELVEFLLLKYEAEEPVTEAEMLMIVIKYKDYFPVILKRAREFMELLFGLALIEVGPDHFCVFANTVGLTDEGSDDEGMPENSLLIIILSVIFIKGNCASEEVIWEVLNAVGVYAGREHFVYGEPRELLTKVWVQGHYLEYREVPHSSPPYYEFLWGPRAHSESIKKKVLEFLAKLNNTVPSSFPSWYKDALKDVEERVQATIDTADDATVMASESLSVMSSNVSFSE

[2] = molecular target: TRIM28 (human (endogenous in A375 and Hs 695 T)) (UniProt Q13263); test: as above
[3] = molecular target: TRIM28 (human (endogenous in A375 and Hs 695 T)) (UniProt Q13263); test: co-IP; endogenous proteins, Hs 695 T cells (1 x 10^8) lysed in IP buffer (50 mM Tris-HCl pH 7.5, 150 mM NaCl, 1 mM EDTA, 0.5% NP-40); IP with anti-TRIM28 antibody and protein A-Sepharose, mIgG as negative control; immunoblot

binding [1]: binds
Molecule: TRIM28 (from UniProt Q13263 1-835)

binding [2]: binds | binding [3]: binds
B1: MAGEC2 (protein, UniProt Q9UBF1 1-373)
chain: T1 sequence
